Results published in PubChem BioAssay AID540303 (National Center for Advancing Translational Sciences (NCATS), 2011).
In all, about 330,000 compounds went through this assay and about 1,000 (0.3%) were called active. The inconclusive results got no clear call from the source; some entries with a clear call stand among them for comparison. Calls follow the shape of the dose curve; as a rule, active = well fitted inhibition curve with a large enough effect; inconclusive = small, poorly fitted or top-dose-only effect; inactive = no such curve, though single readings can be large or run the other way; tested in mouse RAW 264.7 cells. Where the call is inconclusive, the potency comes from a doubtful curve fit.
Potency is read from the fitted curve at half-maximal effect.

Experiment: qHTS for Inhibitors of Cell Surface uPA Generation; also: nearly all actives have a fitted effect of over 55% in size
Details: cell surface uPA generation assay; series mostly up to 38.3 µM
In short: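 RAW 264.7, 4000 cells/well, o/n 37 C; cpd 1:5 dilution, up to 38.3 uM final; 24 h 37 C/5% CO2 with reagent; ATP-Lite lum. High ATP = LF entry blocked.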
In the case of `CN(CC(=O)NCc1ccc(F)cc1)CC(=O)Nc1ccc(Cl)c(C(F)(F)F)c1`, the Potency is reported as inconclusive: 22.4 µM [inhibitor, single point]. With `O=C(Nc1ccc(Cl)cc1)Nc1ccccc1C(=O)NCc1ccco1` the Potency was inconclusive: 7.94 µM [inhibitor, partial curve, poor fit]. In the case of `CCCCN(CC)C(=O)CSc1nc2n[nH]c(C)c2c(=N)n1-c1cccc(C)c1`, the Potency is reported as inconclusive: 11.2 µM [inhibitor, partial curve, poor fit]. For `COc1cccc(-c2cc(C(=O)Nn3cnnc3)c3ccccc3n2)c1`, the Potency was inconclusive: 2.24 µM [inhibitor, partial curve]. In the case of `C[C@H]1CN([C@@H](C)CO)C(=O)c2cc(NC(=O)C3CCCCC3)ccc2O[C@H]1CN(C)Cc1ccc(-c2ccccc2)cc1`, the Potency is reported as inconclusive: 12.6 µM [inhibitor, single point]. For `COc1ccc(OC)c(N(CC(=O)N2CCN(c3cc(Cl)ccc3C)CC2)S(C)(=O)=O)c1`, the Potency was inconclusive: 10 µM [inhibitor, single point]. For `CCOC(=O)[C@@H]1[C@H]2COc3ccccc3[C@@H]2N2C(=O)N(c3cccc(Cl)c3)C(=O)[C@@]12C`, the Potency was inconclusive: 2.51 µM [inhibitor, partial curve]. With `c1ccc(-c2cccs2)nc1` the Potency was “inactive”. With `O=C(Nc1ccc(Cl)cc1)Nc1ccccc1Sc1ncc([N+](=O)[O-])s1` the Potency was inconclusive: 28.2 µM [inhibitor, single point]. In the case of `c1ccc(-c2ccc3c(c2)NC(C2Nc4cc(-c5ccccc5)ccc4O2)O3)cc1` (configuration not stated), the Potency is reported as inconclusive: 1 µM [inhibitor, partial curve, poor fit]. For `Cc1sc(NC(=O)c2ccco2)c(C(c2cccnc2)N2CCN(c3ccc(F)cc3)CC2)c1C` (configuration not stated), the Potency was inconclusive: 12.6 µM [inhibitor, single point]. In the case of `CC(C)Oc1ccc(CCC(=O)N/N=C/c2ccncc2)cc1`, the Potency is reported as “inactive”. For `O=[N+]([O-])c1ccc(S(=O)(=O)CC(CN2CCCCC2)N2CCCCC2)cc1` (configuration not stated), the Potency was inconclusive: 1.41 µM [inhibitor, partial curve, poor fit]. With `Cc1ccc(S(=O)(=O)N/N=C/c2cccc3nccnc23)cc1` the Potency was inconclusive: 8.91 µM [inhibitor, single point]. With `CC(C)NS(=O)(=O)c1ccc(OCC(=O)Nc2cccc(F)c2)cc1` the Potency was inconclusive: 0.0112 µM [inhibitor, full curve, poor fit]. With `Cc1cc(/C=N/NC(=O)c2ccc(O)cc2)c(C)n1CC(C)C` the Potency was “inactive”. In the case of `C/C(=N\NC(N)=O)c1cccc(Cl)c1`, the Potency is reported as “inactive”.
